Hit rate of the full screen: of about 340,000 compounds, about 4,500 (1.3%) were called active. Inconclusive means that the source gave no clear call. Such entries were picked first, then a sample of the others. Calls follow the shape of the dose curve; as a rule, active = well fitted inhibition curve with a large enough effect; inconclusive = small, poorly fitted or top-dose-only effect, or another doubt; inactive = no such curve, though single readings can be large or run the other way. Potencies beside an inconclusive call are fits to weak or partial responses and may not hold up.
biological target: DNA polymerase beta (Homo sapiens) (UniProt P06746); test: qHTS Assay for Inhibitors of DNA Polymerase Beta; settings: Pol beta primer extension/strand displacement, fluorescence kinetic; series mostly up to 114 µM
Procedure, shortened: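 Preincubation: enzyme (10 nM) with compound, 15 min, RT. Reaction: substrate added to 50 nM final. Reads: 0 and 10 min. Analysis: normalized, Hill fit.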
Potency is read from the fitted curve at half-maximal effect.

Compound	Potency
CCOn1c(=O)c(-c2cccc3ccccc23)[n+]([O-])c2ccccc21	inconclusive: 89.1 µM [inhibitor, single point]
C=CCc1c(C)nc2nc(SCC(=O)Nc3cccc(Cl)c3)nn2c1C	inconclusive: 89.1 µM [inhibitor, single point]
COc1ccc(C(=O)N/N=C/c2ccc(OC(=O)c3cccc4ccccc34)c([N+](=O)[O-])c2)cc1	active: 11.2 µM
O=C(NCc1cc2ccccc2[nH]1)C1CCC(=O)N(CCCN2CCCC2=O)C1 (stereo not given)	inactive
O=C(CSc1nc2c(c(=O)[nH]1)CCCC2)Nc1ccc(Cl)cc1F	inactive
COc1ccc(F)cc1S(=O)(=O)n1cnc2ccccc21	inconclusive: 100 µM [inhibitor, single point]
COc1cc(/C=C2\SC(=Nc3ccccc3)N(CCc3c[nH]c4ccccc34)C2=O)ccc1OC(C)C(=O)O (stereo not given)	inconclusive: 25.1 µM [inhibitor, full curve]
CCCCCNC(=O)c1cc2c(=O)n3ccccc3nc2n1C	inactive
CCOc1ccc(-c2nnn(CC(=O)Nc3ccccc3OC)n2)cc1OCC	inconclusive: 89.1 µM [inhibitor, single point]
O=C(COC(=O)CCSc1ccc(Cl)cc1)NCc1ccccc1Cl	inconclusive: 89.1 µM [inhibitor, single point]
Cc1ccc(Cn2c(=O)c3c(nc4n3CCCN4Cc3ccccc3)n(C)c2=O)cc1	inconclusive: 7.94 µM [inhibitor, full curve]
Cc1cc(C(=O)N/N=C/c2ccc(-c3cccc(Br)c3)o2)n[nH]1	inconclusive: 50.1 µM [inhibitor, partial curve]
CCOc1ccc(NC(=O)c2cc(=O)c3cc(CC)ccc3o2)cc1	inconclusive: 8.91 µM [inhibitor, full curve, poor fit]
Cc1cc(/C=C\c2ccccc2)nc2ccccc12	inconclusive: 89.1 µM [inhibitor, single point]
Cc1ccc(-c2nn(-c3ccccc3)cc2C=O)o1	inconclusive: 89.1 µM [inhibitor, single point]
Cc1ccc(NC2=C(N3CCOCC3)C(=O)c3ccccc3C2=O)cc1	active: 14.1 µM
O=c1cc(-c2ccc(O)cc2)oc2c(O)c(O)c(O)c(O)c12	active: 2.24 µM
Cc1ccc(C)c(-c2csc(N)c2C(=O)OC(C)C)c1	inconclusive: 89.1 µM [inhibitor, single point]
CCOc1ccc(NC(=O)CN2CCN(CC(=O)Nc3ccc(N(CC)CC)cc3)CC2)cc1	inconclusive: 5.62 µM [inhibitor, full curve, poor fit]
O=C(N/N=C/c1ccc2c(c1)OCO2)c1cc2ccccc2o1	inconclusive: 35.5 µM [inhibitor, single point]
CCOc1ccc(Nc2c(S(=O)(=O)c3ccc(C)cc3)cnc3cc(OC)c(OC)cc23)cc1	inactive
Cc1cccc(OCc2nnc(NC(=O)Cc3cccs3)s2)c1	inconclusive: 20 µM [inhibitor, full curve]
CCc1ccccc1NC(=O)Cn1nnc(-c2nc(-c3ccncc3)no2)c1N	inconclusive: 7.08 µM [inhibitor, full curve]
CCCCC1=CC2=C(c3ccco3)C(=O)C(C)(OC(=O)c3ccc(OC)cc3)C(=O)C2=CN1C1CCCCC1 (stereo not given)	inconclusive: 79.4 µM [inhibitor, single point]

Compound	Potency
CCOC(=O)c1ccc2c(c1)C1C=CCC1C(C(=O)OCC)N2 (stereo not given)	inconclusive: 79.4 µM [inhibitor, single point]
CC1=Nc2cc(C(=O)NC3CCCCC3)ccc2Sc2ccc(Cl)cc21	inconclusive: 10 µM [inhibitor, partial curve, poor fit]
S=c1[nH]nc(-c2cccc(Br)c2)o1	inconclusive: 79.4 µM [inhibitor, single point]
c1ccc(Cn2nnc(CNc3ccccc3)c2-c2c(CNc3ccccc3)nnn2Cc2ccccc2)cc1	inconclusive: 89.1 µM [inhibitor, single point]
c1coc(-c2nnc3sc(-c4cccs4)nn23)c1	inconclusive: 35.5 µM [inhibitor, full curve]
O=C(O)c1ccc(CN2C(=O)c3cccc4c([N+](=O)[O-])ccc(c34)C2=O)cc1	inconclusive: 11.2 µM [inhibitor, full curve]
CC(=O)c1ccc(OC(C)C)c(CSC(=N)N)c1	inconclusive: 63.1 µM [inhibitor, single point]
Cn1nc(C(=O)Nc2ccc(S(=O)(=O)Nc3ncccn3)cc2)ccc1=O	inactive
CCS(=O)(=O)C1=NSC2=NC(=O)/C(=C\c3ccc(OC(=O)c4ccco4)cc3)C(=N)N21	inactive
Cc1ccc(S(=O)(=O)CCC(=O)Nc2cccc(C)c2)cc1	inactive
COc1ccccc1CNC(=O)CSc1nn2c(=O)c(C(C)(C)C)nnc2s1	inconclusive: 89.1 µM [inhibitor, single point]
COc1cccc(NC(=O)Nc2ccc3nc(N4CCN(C)CC4)cc(C)c3c2)c1	inconclusive: 89.1 µM [inhibitor, single point]
CCCCc1c(C)nc2ccccc2c1SCCC(=O)O	inconclusive: 89.1 µM [inhibitor, single point]
CN(C(=O)CSc1nc2ccccc2n1CC(=O)N(C)C1CCCCC1)c1ccccc1	inactive
O=C(Cn1c(=O)c2ccccc2n2nncc12)Nc1cccc(F)c1	inconclusive: 17.8 µM [inhibitor, single point]
CCc1cc(C(=O)c2ccc(C)cc2)c(NC(=O)CCl)s1	inactive
Cc1ccc(Cn2cnc3sc4c(c3c2=O)CCC4)c(C)c1	inconclusive: 89.1 µM [inhibitor, single point]
Cc1c(NC(=O)c2cc(-n3cnnc3)ccc2Cl)cccc1-c1nc2ccccc2s1	inconclusive: 22.4 µM [inhibitor, partial curve, poor fit]
N#Cc1ccc(CSc2nnc(NC(=O)C3CC(=O)N(c4ccc5c(c4)OCCO5)C3)s2)cc1 (stereo not given)	active: 8.91 µM
Cc1cc(C)c2oc(=O)cc(CN3CCC(C)CC3)c2c1	inconclusive: 39.8 µM [inhibitor, single point]
O=C(Nc1cccc(C(F)(F)F)c1)Nc1cccs1	inactive
Cc1ccccc1NC(=O)CSc1ccsc1[N+](=O)[O-]	active: 20 µM
COc1cc2c(cc1OC)C1O[C@](CCCCN3C(=O)c4ccccc4C3=O)(C2)OC2=C1C(=O)c1ccccc1C2=O	inconclusive: 14.1 µM [inhibitor, single point]
O=c1[nH]c(CN(CCc2ccccc2)S(=O)(=O)c2ccc(Cl)cc2)nc2ccccc12	inconclusive: 89.1 µM [inhibitor, single point]

Rewritten field by field: 2 of the compounds above.
CC(=O)c1ccc(OC(C)C)c(CSC(=N)N)c1
  Potency: inconclusive: 63.1 µM [inhibitor, single point]
Cc1ccc(Cn2cnc3sc4c(c3c2=O)CCC4)c(C)c1
  Potency: inconclusive: 89.1 µM [inhibitor, single point]

More results:

Compound	Potency
O=C(CSc1nc2ccccc2c(=O)[nH]1)N1CCN(c2ccccc2)CC1	inconclusive: 1 µM [inhibitor, full curve]
COc1cc(OC)cc(-c2nnc(SCC(=O)Nc3ccc(C(=O)O)cc3)s2)c1	inactive
COc1ccc2[nH]c3nc(SCC(=O)Nc4ccc5c(c4)OCO5)nnc3c2c1	active: 22.4 µM
COc1ccc(-c2csc3nc(-c4ccccc4)oc(=O)c23)cc1OC	inconclusive: 56.2 µM [inhibitor, partial curve]
O=C(Cc1ccc(Cl)cc1)Nc1ccc2oc(-c3ccncc3)nc2c1	inconclusive: 44.7 µM [inhibitor, partial curve]
CN(C)S(=O)(=O)c1cccc(C(=O)OCC(=O)c2ccc3c(c2)NC(=O)CO3)c1	inconclusive: 1.41 µM [inhibitor, full curve, poor fit]
COc1ccc([N+](=O)[O-])cc1NC(=O)C(C)OC(=O)/C=C/c1ccco1 (stereo not given)	inconclusive: 44.7 µM [inhibitor, partial curve]
COc1ccc(CNC(=O)c2cc(=O)c3ccc(C)c(C)c3o2)cc1	inconclusive: 2 µM [inhibitor, partial curve, poor fit]
CCOC(=O)c1cnc2c(cnn2CC)c1NN=C(C)C	inactive
CC1(C)Cc2[nH]c(=S)c(C#N)cc2CO1	inconclusive: 89.1 µM [inhibitor, single point]
CCOc1ccc(NC(=O)c2ccc3c(SCC(=O)O)c4c(nc3c2)CCC4)cc1	inconclusive: 89.1 µM [inhibitor, single point]
CC(C)(C)n1nc2c(c1NC(=O)COc1ccc3ccccc3c1)CS(=O)(=O)C2	inactive
O=C(OCc1ccc(F)cc1)c1cccnc1Cl	inactive
Cc1ccc(SCc2c(C(=O)N/N=C/c3ccncc3)nnn2-c2nonc2N)cc1	inconclusive: 70.8 µM [inhibitor, single point]
O=C(N/C=C/c1ccco1)NCc1ccccc1	active: 15.8 µM
c1ccc(COc2ccc(-c3csnn3)cc2)cc1	inconclusive: 89.1 µM [inhibitor, partial curve]
CCc1ccc(Nc2n[n+](-c3ccccc3)c(-c3c(Cl)cccc3Cl)s2)cc1	inactive
Cc1ccc(S(=O)(=O)N(Cc2ccccc2)Cc2ccco2)cc1	inactive
CC(Oc1cc(F)ccc1[N+](=O)[O-])C(=O)N(C)CC(=O)Nc1ccccc1C(F)(F)F (stereo not given)	inactive
CS(=O)(=O)N(CC(=O)NCc1ccco1)c1ccc2c(c1)OCO2	active: 50.1 µM
Cc1cccc(-n2c(SCC(N)=O)nc3c(c2=O)C2(CCCC2)Cc2ccccc2-3)c1	inactive
CC(=O)Nc1nonc1-c1nc2ccccc2n1N(C(C)=O)C(C)=O	active: 35.5 µM
